Source: the supplement of paper PMC12823440, “Inhibitors supercharge kinase turnover through native proteolytic circuits” (Nature, 2025)
Some of the results follow. Hit calls seldom repeat between salt and free forms of one compound.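 Kinases, fused to nanoluciferase, were expressed in K562 cells; luminescence was measured every 4 h from 2 to 18 h as percent of control (DMSO = 100%, positive control = 0%). A time point is decreased if signal falls significantly (2 sigma). Hits were called by the authors by a rule that is not shown; the count of time points alone does not decide it.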

Amino acid sequences for entries named in this document (tags omitted). A change or cut given only in a name is not applied to a line headed by its entry.
UniProt P36888, whole entry: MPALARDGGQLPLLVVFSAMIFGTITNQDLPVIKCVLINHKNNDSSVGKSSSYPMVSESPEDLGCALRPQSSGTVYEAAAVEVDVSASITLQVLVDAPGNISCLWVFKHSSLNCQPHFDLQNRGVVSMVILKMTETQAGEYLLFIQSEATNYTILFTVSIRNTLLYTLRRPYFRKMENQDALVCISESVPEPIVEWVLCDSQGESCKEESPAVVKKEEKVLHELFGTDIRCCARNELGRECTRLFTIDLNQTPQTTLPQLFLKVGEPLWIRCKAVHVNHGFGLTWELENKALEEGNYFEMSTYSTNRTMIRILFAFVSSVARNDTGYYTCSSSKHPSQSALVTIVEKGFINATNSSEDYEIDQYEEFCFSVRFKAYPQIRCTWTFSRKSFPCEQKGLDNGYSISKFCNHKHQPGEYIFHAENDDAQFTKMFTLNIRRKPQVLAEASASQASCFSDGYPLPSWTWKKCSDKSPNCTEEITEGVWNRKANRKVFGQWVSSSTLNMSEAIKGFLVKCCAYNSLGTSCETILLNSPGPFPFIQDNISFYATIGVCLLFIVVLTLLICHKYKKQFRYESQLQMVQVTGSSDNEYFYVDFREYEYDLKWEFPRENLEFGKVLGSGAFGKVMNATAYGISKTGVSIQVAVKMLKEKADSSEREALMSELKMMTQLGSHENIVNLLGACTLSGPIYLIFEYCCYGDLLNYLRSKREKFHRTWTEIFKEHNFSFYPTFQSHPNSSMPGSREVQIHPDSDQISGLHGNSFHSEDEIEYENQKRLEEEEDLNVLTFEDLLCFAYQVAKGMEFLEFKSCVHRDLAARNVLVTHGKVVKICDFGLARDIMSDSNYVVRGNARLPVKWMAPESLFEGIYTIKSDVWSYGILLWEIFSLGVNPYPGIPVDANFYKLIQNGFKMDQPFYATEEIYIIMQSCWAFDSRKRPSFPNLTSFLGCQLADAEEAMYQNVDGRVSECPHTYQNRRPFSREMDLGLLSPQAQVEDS
UniProt P06241, whole entry, looked up: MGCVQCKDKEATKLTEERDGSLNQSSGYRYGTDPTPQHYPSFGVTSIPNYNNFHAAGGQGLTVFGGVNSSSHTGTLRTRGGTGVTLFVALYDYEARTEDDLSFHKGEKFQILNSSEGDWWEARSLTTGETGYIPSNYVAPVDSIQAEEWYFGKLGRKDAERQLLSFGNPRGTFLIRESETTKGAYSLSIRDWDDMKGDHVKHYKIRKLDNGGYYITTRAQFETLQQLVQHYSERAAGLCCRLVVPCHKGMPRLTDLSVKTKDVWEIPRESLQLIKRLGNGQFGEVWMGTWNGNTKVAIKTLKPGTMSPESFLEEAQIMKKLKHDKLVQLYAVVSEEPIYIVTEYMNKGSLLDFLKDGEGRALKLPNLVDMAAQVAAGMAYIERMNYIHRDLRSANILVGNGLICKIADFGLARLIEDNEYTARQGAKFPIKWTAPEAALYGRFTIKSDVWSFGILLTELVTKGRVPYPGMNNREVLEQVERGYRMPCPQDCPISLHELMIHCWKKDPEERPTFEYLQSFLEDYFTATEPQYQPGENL
UniProt P49840: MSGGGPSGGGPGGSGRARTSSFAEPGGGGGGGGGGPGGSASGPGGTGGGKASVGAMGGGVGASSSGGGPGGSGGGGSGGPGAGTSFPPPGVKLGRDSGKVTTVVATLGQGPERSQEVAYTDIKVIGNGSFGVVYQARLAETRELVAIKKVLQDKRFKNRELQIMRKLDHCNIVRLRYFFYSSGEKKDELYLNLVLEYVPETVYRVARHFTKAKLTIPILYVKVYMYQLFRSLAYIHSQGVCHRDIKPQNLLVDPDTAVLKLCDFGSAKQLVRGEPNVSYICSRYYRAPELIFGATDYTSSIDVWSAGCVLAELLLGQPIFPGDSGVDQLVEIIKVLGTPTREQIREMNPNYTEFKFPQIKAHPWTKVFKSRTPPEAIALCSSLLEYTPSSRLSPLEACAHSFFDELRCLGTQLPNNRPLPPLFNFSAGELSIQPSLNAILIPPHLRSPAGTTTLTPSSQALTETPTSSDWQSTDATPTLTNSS
UniProt P14616: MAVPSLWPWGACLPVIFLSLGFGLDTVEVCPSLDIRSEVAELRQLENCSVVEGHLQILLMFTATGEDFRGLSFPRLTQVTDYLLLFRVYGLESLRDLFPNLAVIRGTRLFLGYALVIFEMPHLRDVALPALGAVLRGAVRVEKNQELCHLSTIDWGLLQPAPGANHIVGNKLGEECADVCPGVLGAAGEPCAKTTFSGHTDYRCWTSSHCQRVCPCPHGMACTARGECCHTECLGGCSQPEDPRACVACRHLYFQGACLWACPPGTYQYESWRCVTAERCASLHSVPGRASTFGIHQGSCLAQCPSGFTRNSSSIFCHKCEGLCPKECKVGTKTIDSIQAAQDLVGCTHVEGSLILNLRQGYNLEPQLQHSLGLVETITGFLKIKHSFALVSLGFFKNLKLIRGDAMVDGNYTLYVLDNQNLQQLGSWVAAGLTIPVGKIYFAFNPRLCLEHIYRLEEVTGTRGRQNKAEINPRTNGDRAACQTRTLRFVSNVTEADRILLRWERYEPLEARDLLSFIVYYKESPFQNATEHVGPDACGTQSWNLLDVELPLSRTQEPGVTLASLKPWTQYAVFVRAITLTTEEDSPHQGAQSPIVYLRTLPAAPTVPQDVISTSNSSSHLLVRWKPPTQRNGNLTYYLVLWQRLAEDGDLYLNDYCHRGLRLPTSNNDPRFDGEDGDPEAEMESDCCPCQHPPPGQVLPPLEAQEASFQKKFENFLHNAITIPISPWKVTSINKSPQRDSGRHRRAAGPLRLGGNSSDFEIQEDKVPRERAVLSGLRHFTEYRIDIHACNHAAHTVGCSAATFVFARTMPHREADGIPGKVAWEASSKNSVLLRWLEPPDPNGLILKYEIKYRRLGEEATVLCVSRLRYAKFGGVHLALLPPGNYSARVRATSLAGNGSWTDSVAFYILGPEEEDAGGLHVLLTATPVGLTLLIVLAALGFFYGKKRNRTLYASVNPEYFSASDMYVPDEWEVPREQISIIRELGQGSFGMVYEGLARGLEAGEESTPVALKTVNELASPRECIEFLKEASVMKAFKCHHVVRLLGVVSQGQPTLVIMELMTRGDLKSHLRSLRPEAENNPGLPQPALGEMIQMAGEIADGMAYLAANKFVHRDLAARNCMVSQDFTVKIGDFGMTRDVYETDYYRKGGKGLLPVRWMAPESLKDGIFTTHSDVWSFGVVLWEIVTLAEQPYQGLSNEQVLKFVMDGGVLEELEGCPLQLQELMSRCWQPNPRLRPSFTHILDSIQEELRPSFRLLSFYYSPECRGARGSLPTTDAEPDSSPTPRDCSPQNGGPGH
UniProt Q9Y616: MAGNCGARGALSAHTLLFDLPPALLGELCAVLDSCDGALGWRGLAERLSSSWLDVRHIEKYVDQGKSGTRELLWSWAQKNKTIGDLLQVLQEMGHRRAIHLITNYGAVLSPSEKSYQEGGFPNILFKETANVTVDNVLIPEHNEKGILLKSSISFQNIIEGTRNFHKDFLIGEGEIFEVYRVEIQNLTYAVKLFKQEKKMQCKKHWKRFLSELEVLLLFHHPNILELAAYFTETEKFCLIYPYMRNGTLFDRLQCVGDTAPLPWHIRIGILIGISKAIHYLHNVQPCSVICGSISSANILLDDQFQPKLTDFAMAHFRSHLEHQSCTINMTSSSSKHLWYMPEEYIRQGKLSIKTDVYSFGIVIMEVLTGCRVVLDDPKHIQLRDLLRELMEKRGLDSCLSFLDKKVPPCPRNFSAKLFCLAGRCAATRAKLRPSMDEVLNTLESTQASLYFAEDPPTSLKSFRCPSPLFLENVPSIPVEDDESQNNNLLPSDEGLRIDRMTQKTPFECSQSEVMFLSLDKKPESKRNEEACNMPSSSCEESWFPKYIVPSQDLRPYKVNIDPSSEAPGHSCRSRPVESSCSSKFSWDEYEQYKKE
UniProt P23458: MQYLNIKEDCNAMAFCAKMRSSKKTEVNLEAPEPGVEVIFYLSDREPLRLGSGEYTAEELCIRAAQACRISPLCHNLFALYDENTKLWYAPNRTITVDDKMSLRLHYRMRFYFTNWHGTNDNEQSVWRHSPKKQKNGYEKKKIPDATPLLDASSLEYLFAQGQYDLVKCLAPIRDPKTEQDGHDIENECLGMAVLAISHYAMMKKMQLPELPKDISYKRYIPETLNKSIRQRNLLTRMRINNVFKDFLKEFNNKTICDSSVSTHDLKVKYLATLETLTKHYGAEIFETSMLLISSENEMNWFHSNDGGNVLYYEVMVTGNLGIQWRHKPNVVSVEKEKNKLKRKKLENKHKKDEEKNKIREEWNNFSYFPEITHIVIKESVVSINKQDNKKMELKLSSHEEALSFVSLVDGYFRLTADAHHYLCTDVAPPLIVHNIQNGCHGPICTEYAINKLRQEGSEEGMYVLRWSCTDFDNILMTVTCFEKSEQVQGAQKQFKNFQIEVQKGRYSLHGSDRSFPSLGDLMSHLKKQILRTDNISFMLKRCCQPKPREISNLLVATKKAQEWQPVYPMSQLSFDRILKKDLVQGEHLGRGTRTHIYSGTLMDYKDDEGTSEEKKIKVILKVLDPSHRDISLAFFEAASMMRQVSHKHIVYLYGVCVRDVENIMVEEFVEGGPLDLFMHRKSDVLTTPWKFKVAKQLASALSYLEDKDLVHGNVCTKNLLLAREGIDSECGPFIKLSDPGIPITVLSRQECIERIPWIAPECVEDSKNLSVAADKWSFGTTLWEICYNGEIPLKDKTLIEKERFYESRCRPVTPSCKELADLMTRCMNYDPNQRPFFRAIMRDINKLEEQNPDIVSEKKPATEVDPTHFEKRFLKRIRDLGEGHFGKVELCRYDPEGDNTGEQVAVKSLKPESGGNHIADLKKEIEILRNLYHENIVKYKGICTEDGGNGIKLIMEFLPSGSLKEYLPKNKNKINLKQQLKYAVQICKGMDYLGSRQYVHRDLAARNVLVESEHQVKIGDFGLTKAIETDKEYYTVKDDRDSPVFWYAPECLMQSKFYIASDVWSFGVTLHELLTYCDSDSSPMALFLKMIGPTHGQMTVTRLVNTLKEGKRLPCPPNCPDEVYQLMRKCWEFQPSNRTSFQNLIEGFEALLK
UniProt P06239: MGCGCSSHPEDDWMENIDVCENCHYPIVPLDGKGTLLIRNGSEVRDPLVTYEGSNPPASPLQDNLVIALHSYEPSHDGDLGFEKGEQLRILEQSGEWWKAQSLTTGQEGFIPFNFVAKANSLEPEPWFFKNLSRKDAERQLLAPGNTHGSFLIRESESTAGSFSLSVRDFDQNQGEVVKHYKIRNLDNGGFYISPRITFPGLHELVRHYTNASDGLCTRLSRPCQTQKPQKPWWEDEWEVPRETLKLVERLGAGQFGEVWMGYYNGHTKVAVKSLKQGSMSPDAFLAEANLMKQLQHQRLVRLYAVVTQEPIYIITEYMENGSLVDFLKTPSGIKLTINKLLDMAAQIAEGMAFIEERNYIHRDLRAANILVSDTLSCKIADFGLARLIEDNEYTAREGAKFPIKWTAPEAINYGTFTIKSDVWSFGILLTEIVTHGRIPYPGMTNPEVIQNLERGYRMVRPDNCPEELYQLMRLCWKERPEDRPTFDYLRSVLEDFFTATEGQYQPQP
UniProt P53667: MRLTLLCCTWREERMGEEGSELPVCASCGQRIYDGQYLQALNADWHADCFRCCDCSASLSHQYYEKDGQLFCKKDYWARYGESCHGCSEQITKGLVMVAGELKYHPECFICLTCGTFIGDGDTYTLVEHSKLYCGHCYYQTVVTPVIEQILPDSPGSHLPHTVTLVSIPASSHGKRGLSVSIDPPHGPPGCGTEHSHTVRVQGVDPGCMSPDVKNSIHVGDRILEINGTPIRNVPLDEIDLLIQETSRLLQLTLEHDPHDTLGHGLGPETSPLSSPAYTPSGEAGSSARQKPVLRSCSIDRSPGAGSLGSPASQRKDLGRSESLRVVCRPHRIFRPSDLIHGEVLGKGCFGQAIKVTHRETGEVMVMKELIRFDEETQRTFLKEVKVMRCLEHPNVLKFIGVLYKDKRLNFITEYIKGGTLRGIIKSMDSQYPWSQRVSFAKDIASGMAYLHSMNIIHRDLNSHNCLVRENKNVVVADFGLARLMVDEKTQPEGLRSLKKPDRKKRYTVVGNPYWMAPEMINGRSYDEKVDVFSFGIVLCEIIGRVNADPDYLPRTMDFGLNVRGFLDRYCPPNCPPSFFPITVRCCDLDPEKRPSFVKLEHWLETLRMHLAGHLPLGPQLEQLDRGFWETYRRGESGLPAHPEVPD

Columns and labels:
Assay in all cases: number of time points (of 5) at which kinase-Nluc abundance scored as decreased, DMSO-normalised (count); higher = more persistent destabilization
Conditions in all cases: K562; 2-18 h
[1] = biological target: FLT3 (UniProt P36888)
[2] = biological target: FYN (UniProt P06241)
[3] = biological target: GSK3A (UniProt P49840)
[4] = biological target: HER2 (UniProt P04626)
[5] = biological target: INSRR (UniProt P14616)
[6] = biological target: IRAK3 (UniProt Q9Y616)
[7] = biological target: JAK1 (UniProt P23458)
[8] = biological target: LCK (UniProt P06239)
[9] = biological target: LIMK1 (UniProt P53667)
[10] = biological target: LIMK2 (UniProt P53671)

Row | SMILES | number of time points [1] | number of time points [2] | number of time points [3] | number of time points [4] | number of time points [5] | number of time points [6] | number of time points [7] | number of time points [8] | number of time points [9] | number of time points [10]
1 | O=C1c2cccc(O)c2C(=O)c2c(O)cccc21 [Danthron] (10 µM) | 0 | 0 | 0 | 0 | 0 | 0 | 0 | 0 | 0 | 0
2 | Cn1cc(-c2ccc3nnc(Sc4ccc5nn(C)cc5c4)n3n2)cn1 [c-Met inhibitor 1] (10 µM) | 0 | 0 | 0 | 0 | 0 | 0 | 0 | 0 | 0 | 0
3 | CC1=C(C(=O)Nc2ccc3[nH]ncc3c2)C(c2ccc(F)c(C(=O)NCc3ccccn3)c2)NC(=O)N1 (stereo not given) (10 µM) | 0 | 0 | 0 | 0 | 0 | 0 | 0 | 0 | 0 | 0
4 | C=CC(=O)N1CCC[C@@H](n2c(=O)n(-c3ccc(Oc4ccccc4)cc3)c3c(N)nccc32)C1 [Tolebrutinib] (10 µM) | 0 | 0 | 0 | 0 | 0 | 0 | 0 | 0 | 0 | 0
5 | Cn1cc(-c2ccc3ncc(Cc4ccc5ncccc5c4)n3n2)cn1 (10 µM) | 0 | 0 | 0 | 0 | 0 | 0 | 0 | 0 | 0 | 0
6 | CCC(=O)N1CC[C@H](Nc2ncnc3c2CN(c2cnc(OC)c(C(F)(F)F)c2)CC3)C1 [Leniolisib] (10 µM) | 0 | 0 | 0 | 0 | 0 | 0 | 0 | 0 | 0 | 0
7 | O=C(NCc1cccc(O)c1)c1cc2cc(F)ccc2[nH]1 (10 µM) | 0 | 0 | 0 | 0 | 0 | 0 | 0 | 0 | 0 | 0
8 | Cc1ccc(Nc2c(C(N)=O)cnc3cc(-c4ccncc4)ccc23)cc1C [cFMS Receptor Inhibitor II] (10 µM) | 0 | 0 | 0 | 0 | 0 | 0 | 0 | 0 | 0 | 0
9 | C[C@@H]1CN(CC(=O)Nc2ccc3c(c2)Cc2cccc(-c4cc(=O)cc(N5CCOCC5)o4)c2S3)C[C@H](C)O1 (2.5 µM) | 0 | 0 | 0 | 0 | 0 | 0 | 0 | 0 | 0 | 0
10 | O=c1[nH]nc(Sc2ncc([N+](=O)[O-])s2)n1-c1ccc2c(c1)OCCO2 (2.5 µM) | 0 | 0 | 0 | 0 | 0 | 0 | 0 | 0 | 0 | 0
11 | CCn1c(-c2nonc2N)nc2c(C#CCO)ncc(OCCCN)c21 [AKT Kinase Inhibitor] (10 µM) | 0 | 3 | 0 | 0 | 0 | 0 | 0 | 0 | 0 | 0
